Assay results reported in patent US12595239B2, “Substituted isoxazoline derivatives” (BASF SE, priority 2021, dated 2026).
Some of these results come from one statement about several compounds together. At least one structure is not confirmed: it was looked up by name or label, or the drawing left a doubt.

Columns and labels:
Format in all cases: in vivo
Myzus persicae = test: B.3 Green Peach Aphid (mixed life stages), systemic artificial diet test; conditions: 2500 ppm; treated aphid diet, 3 days
Outline: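 Compounds, formulated in 25% DMSO/75% water, were mixed at several concentrations into liquid artificial diet under a membrane, two replicates. 5–8 adult aphids fed on treated diet for 3 days at about 23±1 °C, 50±5% RH. Mortality and fecundity were scored visually.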

Anthonomus grandis = test: B.1 Boll weevil (Anthonomus grandis), 96-well microtiter plate diet test; conditions: 2500 ppm; egg and larval mortality, 5 days
Dichromothrips corbetti = test: B.7 Orchid Thrips, floral-immersion test; conditions: 300 ppm; adult thrips, 72 hours after treatment
Outline: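 Orchid petals were dipped in compound diluted in 1:1 acetone:water with 0.01% v/v Kinetic, dried, then sealed with about 20 lab-colony adult thrips. Arenas were held in the dark at about 28 °C, and percent mortality was scored 72 h after treatment.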

Nezara viridula = test: B.8 Green Soldier Stink Bug, soybean pod spray test; conditions: 300 ppm; late 3rd instar, after 5 days
Protocol: The active compound was dissolved at the desired concentration in a mixture of 1:1 (vol:vol) distilled water:aceteone. Surfactant (Kinetic) was added at a rate of 0.01% (vol/vol). The test solution was prepared at the day of use. Soybean pods were placed in 90×50 mm glass Petri dishes lined with moistened filter paper and inoculated with ten late 3rd instar N. viridula. Using a hand atomizer, an approximately 2 ml solution was sprayed into each Petri dish. Treated setup was kept at about 25-26° C. and relative humidity of about 65-70%. Percent mortality was recorded after 5 days.

Aedes aegypti = conditions: 2500 ppm; larval mortality, 2 days
Plutella xylostella = test: B.6 Diamond Back Moth, cabbage leaf disc dip test; conditions: 300 ppm; 3rd instar larvae, 72 hours after treatment
Outline: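 Cabbage leaf discs were dipped in compound in 1:1 water:acetone with 0.01% surfactant, air-dried, then infested with ten 3rd instar larvae. Mortality read at 72 h after treatment, with feeding damage scored on a 0–100% scale.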

Heliothis virescens = test: B.4 Tobacco Budworm, microtiter plate diet test; conditions: 2500 ppm; egg and larval mortality, 5 days
Outline: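 Compounds in 25% DMSO/75% water sprayed at various concentrations onto diet in microtiter wells each holding 15-25 H. virescens eggs, two replicates. Plates kept 5 days at about 28±1 °C and 80±5% relative humidity; egg and larval mortality then scored visually.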

Spodoptera eridania = test: B.11 Southern Armyworm 2nd instar larvae, lima bean foliar spray test; conditions: 300 ppm, 4 days after treatment
Outline: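 Scoring of mortality and feeding reduction was done 4 days after treatment, relative to untreated controls. Sieva lima beans at the 1st true leaf stage received an electrostatic foliar spray (50:50 acetone:water, 0.01% surfactant), then were bagged with 10–11 larvae at about 25 °C and 20–40% RH.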

Measured: mortality in comparison with untreated controls

O=C(NC1CC1)c1cc(NC2=NOC(c3cc(Cl)cc(Cl)c3)(C(F)(F)F)C2)ccc1Cl (stereo not shown) [I-1]
not listed: Spodoptera eridania
at least 75%: all other assays above

N#CC1(NC(=O)c2cc(N(CC3C[S+]([O-])C3)C3=NOC(c4cc(Cl)cc(Cl)c4)(C(F)(F)F)C3)ccc2Cl)CC1 (stereo not shown) [I-158]
not listed: Myzus persicae | Spodoptera eridania
at least 75%: all other assays above

O=C(Nc1ccc(F)cc1F)c1cc(NC2=NOC(c3cc(Cl)cc(Cl)c3)(C(F)(F)F)C2)ccc1Cl (stereo not shown) [I-2]
at least 75%: Myzus persicae | Nezara viridula

N#CC1(NC(=O)c2cc(NC3=NOC(c4cc(Cl)cc(Cl)c4)(C(F)(F)F)C3)ccc2Cl)CCC1 (stereo not shown) [I-23]
at least 75%: all assays above

O=C(Nc1ccc(F)nc1)c1cc(NC2=NOC(c3cc(Cl)cc(Cl)c3)(C(F)(F)F)C2)ccc1Cl (stereo not shown) [I-26]
at least 75%: all assays above

O=C(CNC(=O)c1cc(NC2=NOC(c3cc(Cl)cc(Cl)c3)(C(F)(F)F)C2)ccc1Cl)NCC(F)(F)F (stereo not shown) [I-12]
not listed: Aedes aegypti
at least 75%: all other assays above

N#CC1(NC(=O)c2cc(N(CC3CSC3)C3=NOC(c4cc(Cl)cc(Cl)c4)(C(F)(F)F)C3)ccc2Cl)CC1 (stereo not shown) [I-159]
not listed: Aedes aegypti
at least 75%: all other assays above

CN(C1=NOC(c2cc(Cl)cc(Cl)c2)(C(F)(F)F)C1)c1ccc(Cl)c(C(=O)Nc2cc(C#N)n(C)n2)c1 (stereo not shown) [I-135]
not listed: Spodoptera eridania
at least 75%: all other assays above

N#CC1(NC(=O)c2cc(NC3=NOC(c4cc(Cl)cc(Cl)c4)(C(F)(F)F)C3)ccc2Cl)COC1 (stereo not shown) [I-22]
not listed: Aedes aegypti
at least 75%: all other assays above

CN(C1=NOC(c2cc(Cl)cc(Cl)c2)(C(F)(F)F)C1)c1ccc(Cl)c(C(=O)NC2(C#N)CC2)c1 (stereo not shown) [I-28]
at least 75%: Nezara viridula

O=C(Nc1ccc(F)cc1F)c1cc(NC2=NOC(c3cc(Cl)cc(Cl)c3)(C(F)(F)F)C2)ccc1C(F)(F)F (stereo not shown) [I-66]
not listed: Spodoptera eridania
at least 75%: all other assays above

CCN1OCC(NC(=O)c2cc(N(C)C3=NOC(c4cc(Cl)cc(Cl)c4)(C(F)(F)F)C3)ccc2Cl)C1=O (stereo not shown) [I-147]
at least 75%: Myzus persicae | Anthonomus grandis | Spodoptera eridania | Nezara viridula | Heliothis virescens

Cc1ccc(NC2=NOC(c3cc(Cl)cc(Cl)c3)(C(F)(F)F)C2)cc1C(=O)Nc1ncc(F)cc1F (stereo not shown) [I-168]
not listed: Spodoptera eridania
at least 75%: all other assays above

N#CC1(NC(=O)c2cccc(NC3=NOC(c4cc(Cl)cc(Cl)c4)(C(F)(F)F)C3)c2F)CC1 (stereo not shown) [I-59]
not listed: Nezara viridula
at least 75%: all other assays above

O=C(NC1(c2cocn2)CC1)c1cc(NC2=NOC(c3cc(Cl)c(F)c(Cl)c3)(C(F)(F)F)C2)ccc1Cl (stereo not shown) [I-155]
not listed: Nezara viridula
at least 75%: all other assays above

CN(C1=NOC(c2cc(Cl)cc(Cl)c2)(C(F)(F)F)C1)c1ccc(Br)c(C(=O)NC2(C#N)CC2)c1 (stereo not shown) [I-148]
not listed: Nezara viridula
at least 75%: all other assays above
